The target in the test is human TIM3 (human) (UniProt Q8TDQ0). As to the kind of experiment: identification and selection; method not described.

Protein sequences, listed by entry. Tags and fused reporters are not part of them. Residues count along the entry.
UniProt Q8TDQ0, residues 22-301: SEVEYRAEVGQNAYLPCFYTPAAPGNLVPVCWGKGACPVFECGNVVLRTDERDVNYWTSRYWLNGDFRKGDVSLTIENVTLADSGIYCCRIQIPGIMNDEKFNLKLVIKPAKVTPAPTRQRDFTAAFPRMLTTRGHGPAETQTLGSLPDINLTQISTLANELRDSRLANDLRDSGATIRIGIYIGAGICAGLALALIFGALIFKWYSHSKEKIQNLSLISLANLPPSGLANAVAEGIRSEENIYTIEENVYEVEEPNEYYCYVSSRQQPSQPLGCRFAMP

Changes are numbered by the printed parent chain. No constants are given. Whether binding was seen depends on the method and setting. Some results given as binding are weak or reduced against the parent protein; the word gives no strength.

B1: TID10 (antibody, V domains shown)
VH: QVQLVESGGGLVQPGGSLRLSCAASGFPFNTYWMNWVRQAPGKGLEWVANINPDGSEKYYLDSVKGRFTISRDNAKNSLFLQMNSLRAEDTAVYYCGVVVWGRGTTVTVSS
VL: DIVMTQSPLSLPVTLGQPASISCRSSQSLVHSDGNTYLNWFQQRPGQSPRRLIYRVSNRDSGVPDRFSGSGSGTDFTLKISRVEAEDVGIYYCMQSTHWPLTFGQGTKVEIK
For the molecule B1, the binding result is “binds”.

B2: TIG6 (antibody, V domains shown)
VH: QVQLVESGGALVQPGGSLRLSCAASGFTFSNDWMSWVRQAPGKGLEWVANINQDGSEKNYVDSVKGRFTISRDNAKNSLYLQMNSLRGDDTAVYYCARGSGSSWFIWGQGTLVTVSS
VL: B1 VL with D1E, M4L, S32G, D33S, R55E, I90V, T97S, H98F, Q105G
As to B2, the binding entry is given as “binds”.

B3: TIE7 (antibody, V domains shown)
VH: EVQLVESGGGLAEDGGSLTLSCAASGFTFGNHAMRWVRQAPGKGLEWISSISENSRNTFYSDSVKGRFTISRDNSRNTLYLQMNSLRAEDTAVYYCARERGHSYGYGYWGQGTLVTVSS
VL: B1 VL with I2V, Q42H, R55K, I90V, H98Q
As to B3, the binding entry was “binds”.

B4: TIG10 (antibody, V domains shown)
VH: EVQLVESGAEVRKPGASVKISCKTPGYSFTERSIHWVRQAPGQGLEWIGRTIPTLEMASYAQKFQGRVTISADKSTRTGYMELRDLRSEQTAVYYCSTQTPSYTDHWGQGTLVTVSS
VL: B1 VL with D1E, M4L, L9S, P12S, S32R, I90V, H98Q, W99P, Q105G
Turning to B4, the binding entry is “binds”.

B5: TIC4 (antibody, V domains shown)
VH: QVQLVQSGGGLVQPGGSLRLSCAASGFSFSTYAMSWVRQAPGKGLEWVSGISGSGRTPYYADSVKGRFTISRDNDKNSLYLQITSLRAEDTAVYYCARNDIFTGSLPDWGQGTLVTVSS
VL: SYVLTQPRSVSGSPGQSVTLSCTGTSSDVGGYNYVSWYQQHPGKAPKLMISDVSARPSGISNRFSGSKSGNTASLTISGLQAEDEADYYCSSFTSSSTYVFGAGTKVTVL
In the case of B5, the binding result is “binds”.

B6: TID1 (antibody, V domains shown)
VH: QVQLVESGGGLVKPGGSLRLSCAASGFTFSSYSMNWVRQAPGKGLEWVSSISSSSSYIYYADSVKGRFTISRDNAKNSLYLQMNSLRAEDTAVYYCASGDHMDVWGQGTTVTVSS
VL: QPVLTQPPSASGTPGQRVTISCSGSSSNVGTNYVYWYQQLPGTAPKLLTHINNQRPSGVPDRFSGSKSGTSASLAISGLRSEQEADYYCAAWDATLSAWVFGGGTKLTVL
Regarding B6, the binding result was “binds”.

B7: TIF3 (antibody, V domains shown)
VH: QVQLVQSGSEVKTPGASVKVSCKASGYALSSYDINWVRQAPGQGLEWIGWMNPNSDRRGYAQKFQGRVTMTTDTSISTAYMELSSLTSEQTAMYYCAREKTRGRFDYWGQGTLVTVSS
VL: VIWMTQSPSSLSASVGDRVTITCRASQTMNNYLNWYQQKPGKAPKLLIYAASTLQSGVPSRFSGSRSGTEFTLTISGLQPEDFATYYCQQSYSTPTFGQGTKVEIK
For the molecule B7, the binding result is given as “binds”.

B8: TIA6 (antibody, V domains shown)
VH: QVQLVQSGAEVKKPGASVKVSCKASGYTFTSYGISWVRQAPGQGLEWMGWISAYNGNTNYAQKLQGRVTMTTDTSTSTAYMELRSLRSDDTAVYYCAKGDYFDYWGQGTLVTVSS
VL: SYELMQPASVSGSPGQSITISCTGTSYDVGRYNYVSWYQQHPGKAPKLIIYGVSSRPAGASNRFSGSKSGNTASLTISGLQTEDEADYYCSSYTSSDAYVFGTGTKLTVL
As for B8, the binding result is listed as “binds”.

B9: TIE9 (antibody, V domains shown)
VH: QVQLQQSGPGLVKPSQSLSLACAISGDSVSSNSAAWNWIRQSPSRGLEWLGRTYYRSKWYTDYAVSLKSRITVSVDTSKNQFSLQLNSVTPEDTAVYYCATGGLNYGYFDSWGRGTLVTVSS
VL: QSALTQPPSASGSPGQSVTISCTGTSSDVGGYKYVSWYQQHPGKAPKLMIYDVSNRPSGVSNRFSGSKSGNTASLTISGLQAEDEADYYCSSYTSSSAYVFGTGTKVTVL
For the molecule B9, the binding result is reported as “binds”.

B10: TIA1 (antibody, V domains shown)
VH: QMQLVQSGGEVKKPGASVKVSCKTSGYRFTSYGISWVRQAPGQGLEWMGWISGYNGETNYAETLQGRLTLTTDTSTSTAYMELGSLRPDDTAVYYCTRDGHSPYFDYWGQGTLVTVSS
VL: QAVLTQPASVSGSPGQSVTISCTGTSSDVGGYNYVSWYQQHPGKAPKLMIYEVSKRPSGIPERFSGSNSGNTATLTISRVEAGDEADYYCQVWDSSSDHWVFGRGTKLTVL
Regarding B10, the binding entry is on record as “binds”.

B11: TIH1 (antibody, V domains shown)
VH: QVQLVESGGGLVQPGGSLRLSCAASGFIFSDYFMTWMRQAPGKGLEWVAYIGDRATPIRYADSVKGRFTISRDNANNSVYLQMNSLGVEDTAVYYCARGGLSTDYWGQGTLVTVSS
VL: LPVLTQPPSASGTPGQRVTISCSGSSSNIGSNTVNWYQRLPGTAPKLLIYGNSNRPSGVPDRFSGSKSGTSASLAITGLQAEDEADYYCQSYDSSLSGSTVFGGGTKLTVL
Consider B11, for which the binding entry is “binds”.

B12: TIF8 (antibody, V domains shown)
VH: EVQLVESGAEVKKPGASVKVSCKASGYTFSSYYIHWVRQAPGQGLEWMGVINPTGGSTHYAEKFQGRVTMTRDTSTSTVYMQLSSLRSEQTAVYYCARDQYGWGNYYYYGMDVWGQGTTVTVSS
VL: DIQLTQSPGTLSVSPGERVTLSCRASQSVGDTYLAWYQQKPGQAPRLLIYGASTRATGVPARFSGSGSGTEFTLTISSLQSEQFAVYYCQQYGSSPLTFGGGTKVEIK
In the case of B12, the binding result is “binds”.

B13: TIG1 (antibody, V domains shown)
VH: B12 VH with E1Q, E6Q, S30T, Q82E, E89D, Q90D, Q100H
VL: AIQMTQSPGTLSLSPGERATLSCRASQSVSSSYLAWYQQKPGQAPRLLIYGASSRATGIPDRFSGSGSGTDFTLTISRLEPEDFAVYYCQQYENSPLTFGGGTKVEIK
As to B13, the binding result is “binds”.

B14: TIC5 (antibody, V domains shown)
VH: EVQLVESGGGLVKPGGSLRLSCTGSGFSLSNYYMTWIRQTPERGLEWMSYLSGSGNLISYADSIKGRFTISRDSAENSLSLQMDSLRVEDTAVYYCAREYYGTFDYWGQGTLVTVSS
VL: AIQLTQSPSTLSASVGDRVTITCRASQTISTWLAWYQQKPGKAPKLLIYKASTLETGVPSRFSGSGSGTEFTLTISSLQPEDFATYFCQQSYSTPYTFGQGTKLEIK
On to B14, for which the binding entry is “binds”.

B15: TIC8 (antibody, V domains shown)
VH: QVQLVQSGAEVKKPGASVKVSCKASGYTFSNYEINWVRQATGQGLEWMGWMNPNSGKIGYEQKFQGRVTMTRNTSISSAYMELSSLRSDDTAVYYCARGNGDLGAADYWGQGTLVTVSS
VL: VIWMTQSPSSLSASVGDRVTITCRASQSIGRYLNWYQQKPGKAPKLLIYAASNLQSGVPSRFSGSGSGTDFSVTISSLQPEDFATYYCQQSYSTPRTFGQGTKLEIK
B15: the binding entry is given as “binds”.

B16: TID6 (antibody, V domains shown)
VH: EVQLLESGGGVVQPGRSLRLSCAAPGFSFSSYGMHWVRQAPGKGLEWVALISYDGSNKYYADSVKGRFTISRDNSMSTLYLQMNSLRAEDTAVYYCAKPRGYTGYGDYYYGLDVWGQGTTVTVSS
VL: QSALTQPPSVSKGLRQTATLTCTGNSNNVGNQGAAWLQQHQGHPPKLLSYRNNNRPSGISERFSASRSGNTASLTITGLQSEQEADYYCSAWDRSLSALVFGGGTKLTVL
On to B16, for which the binding entry is given as “binds”.

B17: TIC11 (antibody, V domains shown)
VH: EVQLVESGGGLIQPGESLRLSCAVSGFTVRGNYVAWVRQAPGKGLEWVATINGGGSPYYADSVKGRFTISRDDSKNTVDLQMNILRVEDTAIYYCARDTYCTAGICPSSPVWGQGTTVTVSS
VL: QAVLTQPPSVSGAPGQRVTISCTGSSSNIGAGYDVHWYQQLPGTAPKLLIYGNSNRPSGVPDRFSGSKSGTSASLAITGLQAEDEAVYFCQSHDTSVTGVVFGGGTKVTVL
On to B17, for which the binding result is recorded as “binds”.

B18: TIG3 (antibody, V domains shown)
VH: QVQLQQWGAGLLKPSETLSLTCAVSGGSFSGYYWSWIRQTPGKGLEWMAEINHSGDTDYNPSLKSRVTISVDTSKNQFSLNLTSVTAADTAVYFCARGSRRGRYFPQPFDFWGQGTLVTVSS
VL: SSELTQDPAVSVALGQTVRITCQGDSLRSYYASWYQQKPGQAPVLVIYGKNNRPSGIPDRFSGSSSGNTASLTITGAQAEDEADYYCNSRDSSGNHVVFGGGTKLTVL
Turning to B18, the binding entry is listed as “binds”.

B19: TID12 (antibody, V domains shown)
VH: QMQLVQSGAEVKKPGASVKVSCKASGYTFTSYGISWVRQAPGQGLEWMGWISAYNGNTNYAQKLQGRVTMTTDTSTSTAYMELRSLRSDDTAVYYCARETGYNWNGLDFDYWGQGTLVTVSS
VL: QAGLTQPPSVSAAPGQKVTISCSGSSSNIGNNYVSWYQQLPGTAPKLLIYDNNKRPSGIPDRFSGSKSGTSATLGITGLQTGDEADYYCGTWDSSLSAGEFGGGTKLTVL
Regarding B19, the binding result is reported as “binds”.

B20: TIE3 (antibody, V domains shown)
VH: QMQLVQSGAEVKKPGASVKVSCKASGYTFTNYYMHWVRQAPGQGLEWMGWINPNSDNTAYAQKFQGRVTMTRNTSISTVYMELSSLRSEQTAVYYCARGDSTFGYMDVWGKGTTVTVSS
VL: QSVLTQPPSVSGAPGQRVTISCTGSSSNIAAHYVHWYQQLPGTAPKLLIFGNNNRPSGVPDRFSGSKSGTSASLAISGLRSEQEADYYCAAWDDSLSGWVFGGGTQLTVL
Take B20: the binding result was “binds”.

B21: TIG9 (antibody, V domains shown)
VH: EVQLVQSGAEVKKPGASVKVSCKASGYTFTDYYIHWVRQAPGQGLEWMGWINANSGATNYAQNFQGRVTMTRDTSIRSAYMELSNLTSDDTAVYYCARDRATTPSFDYWGQGTLVTVSS
VL: AIQLTQSPSSLSAPVGDRVTIACRASQTIGHYLNWYQQKSGKAPKLLIYTATSLQSGVPSRFSGSGYGTDFTLTIGNLQPEDSATYYCQQSFGIPYTFGQGTKVDIK
With B21, the binding entry is on record as “binds”.
